The values that follow come from publication PMC11705635.

No constants are given. Whether binding was seen depends on the method and setting. In cells and extracts the contact can be indirect. Some binding calls cover weakened binding; strength is not graded here.

Assay [1] concerns the target T1, ubiquitin specific peptidases 25 (USP25) (mouse (endogenous in BMDMs)) (UniProt P57080).
T1 sequence: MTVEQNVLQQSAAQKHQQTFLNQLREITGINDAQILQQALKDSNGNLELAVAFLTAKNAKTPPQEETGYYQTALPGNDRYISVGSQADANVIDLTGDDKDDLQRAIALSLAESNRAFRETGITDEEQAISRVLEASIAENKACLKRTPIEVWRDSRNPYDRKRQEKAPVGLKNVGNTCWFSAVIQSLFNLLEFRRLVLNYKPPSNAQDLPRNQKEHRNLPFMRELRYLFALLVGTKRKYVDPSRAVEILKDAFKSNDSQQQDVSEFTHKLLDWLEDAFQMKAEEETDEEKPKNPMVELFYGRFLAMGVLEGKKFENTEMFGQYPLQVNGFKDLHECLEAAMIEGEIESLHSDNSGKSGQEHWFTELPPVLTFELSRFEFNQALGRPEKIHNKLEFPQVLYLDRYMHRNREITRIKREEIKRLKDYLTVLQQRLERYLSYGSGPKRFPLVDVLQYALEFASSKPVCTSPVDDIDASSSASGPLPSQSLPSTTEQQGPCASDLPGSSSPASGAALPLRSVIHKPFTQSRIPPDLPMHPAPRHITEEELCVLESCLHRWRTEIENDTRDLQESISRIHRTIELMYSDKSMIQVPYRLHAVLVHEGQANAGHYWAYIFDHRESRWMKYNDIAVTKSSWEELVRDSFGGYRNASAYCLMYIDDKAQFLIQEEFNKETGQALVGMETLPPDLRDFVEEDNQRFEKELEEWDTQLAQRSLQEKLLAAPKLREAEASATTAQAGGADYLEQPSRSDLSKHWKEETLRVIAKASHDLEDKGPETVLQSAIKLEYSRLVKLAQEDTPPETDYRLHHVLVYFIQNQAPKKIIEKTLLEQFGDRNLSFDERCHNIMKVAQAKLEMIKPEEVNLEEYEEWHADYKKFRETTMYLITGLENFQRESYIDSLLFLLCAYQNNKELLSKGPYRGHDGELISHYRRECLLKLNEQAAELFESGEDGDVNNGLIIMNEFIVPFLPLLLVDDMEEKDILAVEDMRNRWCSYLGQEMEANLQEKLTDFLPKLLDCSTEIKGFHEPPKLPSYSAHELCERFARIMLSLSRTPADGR
Nature of the assay: co-IP; cell lysates in IP lysis buffer with protease inhibitors; primary antibody (anti-USP25 or anti-STAT6) overnight at 4 C, Protein A/G beads, 5 washes with PBS, immunoblot; both directions.

Assay [2] concerns the target T2, signal transducer and activator of transcription 6 (STAT6) (mouse (endogenous in BMDMs)) (UniProt P52633).
T2 sequence: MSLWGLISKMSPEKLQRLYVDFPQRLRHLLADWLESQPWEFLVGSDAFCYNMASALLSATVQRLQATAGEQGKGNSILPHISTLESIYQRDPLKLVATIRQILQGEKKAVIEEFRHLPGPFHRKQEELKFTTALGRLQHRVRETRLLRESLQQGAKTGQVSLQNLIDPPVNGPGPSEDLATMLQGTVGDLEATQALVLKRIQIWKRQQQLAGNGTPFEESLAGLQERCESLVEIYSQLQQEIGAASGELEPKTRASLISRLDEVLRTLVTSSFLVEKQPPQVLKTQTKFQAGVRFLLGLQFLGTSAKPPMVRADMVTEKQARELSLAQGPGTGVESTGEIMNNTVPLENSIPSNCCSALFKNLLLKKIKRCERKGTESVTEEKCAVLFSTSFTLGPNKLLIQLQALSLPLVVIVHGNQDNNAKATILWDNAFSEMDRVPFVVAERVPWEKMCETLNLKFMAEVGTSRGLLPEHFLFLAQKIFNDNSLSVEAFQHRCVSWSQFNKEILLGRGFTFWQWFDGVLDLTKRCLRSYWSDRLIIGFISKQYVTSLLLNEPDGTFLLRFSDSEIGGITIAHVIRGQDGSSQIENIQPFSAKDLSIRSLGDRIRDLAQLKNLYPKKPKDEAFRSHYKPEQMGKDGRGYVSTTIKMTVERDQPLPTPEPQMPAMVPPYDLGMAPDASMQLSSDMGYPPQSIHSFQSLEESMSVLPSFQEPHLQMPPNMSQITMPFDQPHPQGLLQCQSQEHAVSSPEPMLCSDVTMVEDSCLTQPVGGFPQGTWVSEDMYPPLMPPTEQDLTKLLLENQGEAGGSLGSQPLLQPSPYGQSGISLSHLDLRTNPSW
The description is as above.

B1: signal transducer and activator of transcription 6 (STAT6) (protein, UniProt P52633 1-837)
chain: MSLWGLISKMSPEKLQRLYVDFPQRLRHLLADWLESQPWEFLVGSDAFCYNMASALLSATVQRLQATAGEQGKGNSILPHISTLESIYQRDPLKLVATIRQILQGEKKAVIEEFRHLPGPFHRKQEELKFTTALGRLQHRVRETRLLRESLQQGAKTGQVSLQNLIDPPVNGPGPSEDLATMLQGTVGDLEATQALVLKRIQIWKRQQQLAGNGTPFEESLAGLQERCESLVEIYSQLQQEIGAASGELEPKTRASLISRLDEVLRTLVTSSFLVEKQPPQVLKTQTKFQAGVRFLLGLQFLGTSAKPPMVRADMVTEKQARELSLAQGPGTGVESTGEIMNNTVPLENSIPSNCCSALFKNLLLKKIKRCERKGTESVTEEKCAVLFSTSFTLGPNKLLIQLQALSLPLVVIVHGNQDNNAKATILWDNAFSEMDRVPFVVAERVPWEKMCETLNLKFMAEVGTSRGLLPEHFLFLAQKIFNDNSLSVEAFQHRCVSWSQFNKEILLGRGFTFWQWFDGVLDLTKRCLRSYWSDRLIIGFISKQYVTSLLLNEPDGTFLLRFSDSEIGGITIAHVIRGQDGSSQIENIQPFSAKDLSIRSLGDRIRDLAQLKNLYPKKPKDEAFRSHYKPEQMGKDGRGYVSTTIKMTVERDQPLPTPEPQMPAMVPPYDLGMAPDASMQLSSDMGYPPQSIHSFQSLEESMSVLPSFQEPHLQMPPNMSQITMPFDQPHPQGLLQCQSQEHAVSSPEPMLCSDVTMVEDSCLTQPVGGFPQGTWVSEDMYPPLMPPTEQDLTKLLLENQGEAGGSLGSQPLLQPSPYGQSGISLSHLDLRTNPSW
Take B1: the binding entry in assay [1] was “binds”.

B2: ubiquitin specific peptidases 25 (USP25) (enzyme, UniProt P57080 1-1055)
chain: MTVEQNVLQQSAAQKHQQTFLNQLREITGINDAQILQQALKDSNGNLELAVAFLTAKNAKTPPQEETGYYQTALPGNDRYISVGSQADANVIDLTGDDKDDLQRAIALSLAESNRAFRETGITDEEQAISRVLEASIAENKACLKRTPIEVWRDSRNPYDRKRQEKAPVGLKNVGNTCWFSAVIQSLFNLLEFRRLVLNYKPPSNAQDLPRNQKEHRNLPFMRELRYLFALLVGTKRKYVDPSRAVEILKDAFKSNDSQQQDVSEFTHKLLDWLEDAFQMKAEEETDEEKPKNPMVELFYGRFLAMGVLEGKKFENTEMFGQYPLQVNGFKDLHECLEAAMIEGEIESLHSDNSGKSGQEHWFTELPPVLTFELSRFEFNQALGRPEKIHNKLEFPQVLYLDRYMHRNREITRIKREEIKRLKDYLTVLQQRLERYLSYGSGPKRFPLVDVLQYALEFASSKPVCTSPVDDIDASSSASGPLPSQSLPSTTEQQGPCASDLPGSSSPASGAALPLRSVIHKPFTQSRIPPDLPMHPAPRHITEEELCVLESCLHRWRTEIENDTRDLQESISRIHRTIELMYSDKSMIQVPYRLHAVLVHEGQANAGHYWAYIFDHRESRWMKYNDIAVTKSSWEELVRDSFGGYRNASAYCLMYIDDKAQFLIQEEFNKETGQALVGMETLPPDLRDFVEEDNQRFEKELEEWDTQLAQRSLQEKLLAAPKLREAEASATTAQAGGADYLEQPSRSDLSKHWKEETLRVIAKASHDLEDKGPETVLQSAIKLEYSRLVKLAQEDTPPETDYRLHHVLVYFIQNQAPKKIIEKTLLEQFGDRNLSFDERCHNIMKVAQAKLEMIKPEEVNLEEYEEWHADYKKFRETTMYLITGLENFQRESYIDSLLFLLCAYQNNKELLSKGPYRGHDGELISHYRRECLLKLNEQAAELFESGEDGDVNNGLIIMNEFIVPFLPLLLVDDMEEKDILAVEDMRNRWCSYLGQEMEANLQEKLTDFLPKLLDCSTEIKGFHEPPKLPSYSAHELCERFARIMLSLSRTPADGR
For the molecule B2, the binding result in assay [2] was “binds”.
